These are literature values, as cited in article PMC10112881 (Cell reports, 2023).

This series deals with head-twitch response. The following applies: cited from earlier work.

`CCN(CC)C(=O)N[C@H]1C=C2c3cccc4[nH]cc(c34)C[C@H]2N(C)C1` [Lisuride]: the “activity in the HTR paradigm” value was “inactive in the HTR paradigm”.
